# Measurements from PMC12040169 (PLOS Biology, 2025).
# The other results are listed elsewhere or left out.
# Tested on: T1, CTL2-GFP (C. trachomatis L2/434/Bu, GFP-expressing)
# T1 construct: L2/434/Bu, GFP-expressing
# Parameters: species or system HeLa; Intracellular C. trachomatis growth in HeLa cells, bulk GFP fluorescence relative to DMSO
# Settings: bulk GFP, single well; 28.5 h, 10 µM; inhibitor
row,SMILES,% of control remaining
1,O=C(COc1cccnc1)N1CCN(c2ccccc2)CC1 [CBK200210],83.1266%
2,Cc1cc(NC(=O)CCC2CCCCC2)nc2c1c(=O)oc1ccccc12 [CBK291125],101.497%
3,Oc1ccc(-c2cncc(Nc3cccc(Br)c3)n2)cc1 [CBK107803],134.893%
4,Cc1ccnc2c1C(=O)C1(CC2)CCN(C(=O)Nc2ccc(F)cc2F)CC1 [CBK059553T],121.443%
5,C#CCOc1ccc(/C=N/N=C(\N)c2nonc2N)cc1OC [CBK264765],104.712%
6,COc1ccc2[nH]cc(CCNC(=O)N3CCCC(C(=O)O)C3)c2c1 (centres unmarked) [CBK161351],141.734%
7,CCn1c2ccccc2c2cc(CN3CCN(S(=O)(=O)c4ccc(NC(C)=O)cc4)CC3)ccc21 [CBK264248],107.202%
8,CCNc1nc(-c2ccc(SCC)cc2)cn2ccnc12 [CBK066489],117.698%
9,Cc1ccc(-c2csc(NC(=O)c3ccc(S(=O)(=O)N4CCOCC4)cc3)n2)cc1 [CBK094024],116.24%
10,COc1ccc2c(c1)CC(=O)NC21CCN(CCCCC(C)C)CC1 [CBK039839],109.999%
11,Cc1ccc(-n2ncc3c(=O)n(CC(=O)N4CCCCC4)cnc32)cc1 [CBK287532],188.897%
12,Cc1c(C(=O)CCN(C)C2CC=C(c3ccc(F)cc3)CC2)cnn1CCO (centres unmarked) [CBK023799],126.593%
13,CCc1nc2c(C(=O)NCCNC(C)=O)cnn2c(CC)c1Cc1ccc(Cl)cc1 [CBK165730],110.77%
14,CCNC(=O)C1(Cc2ccc(-c3ccncc3)cc2)CCN(C(=O)CC2CCCCC2)CC1 [CBK285785],120.81%
15,Cn1nc(-c2ccc(F)cc2)cc1[C@H]1CN2CC[C@H]1C[C@@H]2CNC(=O)N1CCOCC1 [CBK289108],98.7547%
16,Nc1ncc(-c2ccc(CN3CCOCC3)cc2)nc1-c1ccc(O)cc1 [CBK123798],98.8657%
17,CCOC(=O)c1c(-c2ccccc2)oc2ccc(OCC(=O)NN)cc12 [CBK263826],118.932%
18,COc1cc2cc3c(N)c(C(=O)N4CCCc5ccccc54)sc3nc2cc1OC [CBK117298],105.197%
19,CC(C)(CC(=O)O)CC(=O)Nc1ccc2c(c1)ncn2CCc1ccccc1 [CBK299768],177.191%

# 3 of these compounds, set out differently.
row | SMILES | % of control remaining
2 | Cc1cc(NC(=O)CCC2CCCCC2)nc2c1c(=O)oc1ccccc12 [CBK291125] | 101.497%
3 | Oc1ccc(-c2cncc(Nc3cccc(Br)c3)n2)cc1 [CBK107803] | 134.893%
4 | Cc1ccnc2c1C(=O)C1(CC2)CCN(C(=O)Nc2ccc(F)cc2F)CC1 [CBK059553T] | 121.443%

# Following part

row,SMILES,% of control remaining
1,c1ccc2c(c1)ccn2Cc1ccc(-c2nccnc2-c2nnn[nH]2)cc1 [CBK050821],104.985%
2,Cc1cnn(CC(=O)NC(Cc2ccsc2)c2nc(C)cs2)c1 (centres unmarked) [CBK285151],124.183%
3,CC(C)(C)OC(=O)NC(C)(C)C(=O)N1C[C@H](C(=O)N2CCC3(CC2)CN(S(C)(=O)=O)c2ccccc23)[C@@H](c2nc3ccccc3s2)C1 [CBK136737],126.801%
4,COc1ccc(Cl)cc1S(=O)(=O)N1CCC(C(=O)NCc2cccnc2)CC1 [CBK269878],137.077%
5,CC(C)NC(=O)Cn1ccc2ccnc(-c3cccs3)c21 [CBK284732],116.625%
6,O=C(CSc1nnc(Cc2cccs2)n1-c1ccccc1)Nc1ccc(F)c(Cl)c1 [CBK267589],122.062%
7,Cc1ncc(CN(C)C(C)C(=O)Nc2ccccc2N2CCCC2=O)s1 (centres unmarked) [CBK298274],99.276%
8,CCc1nnc(NS(=O)(=O)c2ccc(NC(=S)Nc3ccc(F)cc3)cc2)s1 [CBK050037],42.7279%
9,Cc1ccc(C(C)(C)CC(C)NCc2ccc(Cl)cc2)o1 (centres unmarked) [CBK262873],142.546%
10,COCCC(=O)N[C@H]1CC[C@]2(C)CCC([C@H](C)C(=O)N3CCC(C)CC3)[C@H](O)[C@H]2[C@@H]1C (some centres unmarked) [CBK289451],139.321%
11,CS(=O)(=O)Nc1cc(-c2noc([C@@H]3CCCN3Cc3ccc(S(C)(=O)=O)cc3)n2)ccn1 [CBK288890],115.967%
12,Cc1ccc(C(=O)NC2CCCCCC2)cc1C [CBK083665],113.152%
13,Cc1ccc(N2CCCC2=O)cc1S(=O)(=O)NC(c1ccccc1)c1ccccc1 [CBK286348],73.3467%
14,O=C(C1CCOCC1)N1CCCC[C@H]2CN(Cc3ccccc3)C[C@H]21 [CBK284839],142.258%
15,O=C(CCn1c(-c2ccncc2)cc2cccnc21)NC1CCCCC1 [CBK282621],127.51%
16,CCN1CCN(Cc2nc3c(c(=O)n(C)c(=O)n3C)n2Cc2c(F)cccc2Cl)CC1 [CBK269236],137.227%
17,CCOC(=O)C(NC(=O)CC)(Nc1cc(C)on1)C(F)(F)F (centres unmarked) [CBK025721],106.842%
18,C/C(=N\O)c1oc2ccccc2c(=O)c1O [CBK010642],129.887%
19,COc1cc(OC)c(NC(=O)CN(C)S(=O)(=O)c2cc(Cl)ccc2Cl)cc1Cl [CBK267399],157.673%
